No constants are given. Whether binding was seen depends on the method and setting. Some entries that bind do so weakly or less than the wild type. Sequences can lack the tags named with a protein.

Amino acid sequences for entries named in this document (tags omitted). A change or cut given only in a name is not applied to a line headed by its entry.
UniProt P04386: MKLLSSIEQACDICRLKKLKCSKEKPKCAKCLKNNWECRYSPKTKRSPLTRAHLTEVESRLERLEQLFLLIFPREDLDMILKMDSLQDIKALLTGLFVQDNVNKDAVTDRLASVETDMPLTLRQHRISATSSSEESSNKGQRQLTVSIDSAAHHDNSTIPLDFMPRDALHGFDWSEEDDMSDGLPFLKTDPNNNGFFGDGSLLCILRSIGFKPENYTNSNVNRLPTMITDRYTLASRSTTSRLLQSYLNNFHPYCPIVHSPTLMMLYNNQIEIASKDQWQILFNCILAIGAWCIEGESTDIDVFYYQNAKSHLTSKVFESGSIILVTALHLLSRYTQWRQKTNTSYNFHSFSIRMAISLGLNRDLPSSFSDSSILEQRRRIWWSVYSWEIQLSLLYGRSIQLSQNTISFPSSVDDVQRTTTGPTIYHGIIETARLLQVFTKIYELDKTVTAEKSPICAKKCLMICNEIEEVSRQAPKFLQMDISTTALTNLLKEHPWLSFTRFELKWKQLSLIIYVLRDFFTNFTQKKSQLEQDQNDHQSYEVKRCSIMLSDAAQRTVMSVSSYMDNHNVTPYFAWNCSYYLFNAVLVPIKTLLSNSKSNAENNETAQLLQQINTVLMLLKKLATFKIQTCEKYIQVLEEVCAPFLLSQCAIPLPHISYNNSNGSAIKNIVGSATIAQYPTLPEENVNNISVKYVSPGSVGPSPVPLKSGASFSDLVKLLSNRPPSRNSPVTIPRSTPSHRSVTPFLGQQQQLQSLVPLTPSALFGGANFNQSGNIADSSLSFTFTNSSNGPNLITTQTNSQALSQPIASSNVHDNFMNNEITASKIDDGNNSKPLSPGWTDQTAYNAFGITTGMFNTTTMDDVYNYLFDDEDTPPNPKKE
UniProt P17181: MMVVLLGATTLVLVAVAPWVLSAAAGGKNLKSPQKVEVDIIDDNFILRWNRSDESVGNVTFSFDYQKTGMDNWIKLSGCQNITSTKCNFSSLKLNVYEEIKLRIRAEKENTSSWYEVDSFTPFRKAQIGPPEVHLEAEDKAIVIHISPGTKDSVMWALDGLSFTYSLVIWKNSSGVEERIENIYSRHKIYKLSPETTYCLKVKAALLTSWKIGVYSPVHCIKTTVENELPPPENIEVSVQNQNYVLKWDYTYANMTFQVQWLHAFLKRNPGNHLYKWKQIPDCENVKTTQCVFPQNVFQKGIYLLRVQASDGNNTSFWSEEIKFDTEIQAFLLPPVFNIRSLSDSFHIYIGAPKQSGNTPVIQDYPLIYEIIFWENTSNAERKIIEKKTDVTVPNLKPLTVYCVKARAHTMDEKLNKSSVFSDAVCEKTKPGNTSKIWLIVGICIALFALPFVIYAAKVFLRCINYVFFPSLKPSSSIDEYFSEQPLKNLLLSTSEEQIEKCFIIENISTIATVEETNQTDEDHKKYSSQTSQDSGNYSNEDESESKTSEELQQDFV

Test [1] addresses T1, IFNAR1-IC domain fused to the Gal4 DNA binding domain (pGBT10-IFNAR1-IC) (human) (UniProt P04386+P17181). Kind of test: yeast two-hybrid.
Test [2] has as its target T1, IFNAR1-IC domain fused to the Gal4 DNA binding domain (pGBT10-IFNAR1-IC) (human). Kind of test: yeast two-hybrid in SFY526, X-gal staining positive.

B1: IR1B1 fused to the Gal4 activation domain (pACT clone IR1B1) (protein, not shown: large carriers; small tags and cut ends)
chain: MGGSGSRLSKELLAEYQDLTFLTKQEILLAHRRFCELLPQEQRSVESSLRAQVPFEQILSLPELKANPFKERICRVFSTSPAKDSLSFEDFLDLLSVFSDTATPDIKSHYAFRIFDFDDDGTLNREDLSRLVNCLTGEGEDTRLSASEMKQLIDYILEESDIDRDGTINLSEFQHVISRSPDFASSFKIVL
Take B1: the binding result in test [1] and in test [2] was “binds” throughout.

The values above are taken from patent US20030176678A1.
